Experimental data as given in US12396994B2, “Compositions for improving physiological function with age” (The Regents Of The University Of Colorado, a body corporate, priority 2017, dated 2025).
At least one structure is not confirmed: it was looked up by name or label, or the drawing left a doubt.

System: human umbilical vein endothelial cells (HUVEC)
Test: Autophagy induction in HUVEC, Cyto-ID fluorescence microplate detection
Type: cell-based
Conditions: 24 h, established inducers at rapamycin 0.5 μM, trehalose 50 mM (high dose), FIG. 1A
Description: First, we compiled a library of naturally occurring compounds known to enhance autophagy. Then, we calculated physiologically relevant concentrations of these compounds based on existing data (e.g., previously reported post-prandial plasma concentrations), and we tested each for its ability to induce autophagy at its calculated concentration alone and/or in combination with other candidate compounds. […] In all experiments, autophagy was assessed in human umbilical vein endothelial cells (HUVEC), because of their relevance to vascular physiological measures (in vivo measures, below). Pooled HUVEC cultures obtained from Cascade Biologics were grown in endothelial cell-specific medium (Lonza) at 37° C. in a 5% humidity incubator. […] Autophagy was assessed using Enzo Life Sciences Cyto-ID autophagy detection reagents (fluorescence microplate detection of autophagic structures) according to manufacturers instructions on an M5 Spectramax fluorescent plate reader (Molecular Devices). […]
To identify a mixture of food-safe compounds that synergistically activates autophagy (the cellular process of recycling damaged internal components), we screened a library of natural compounds reported to induce autophagy in vitro (in cells). […] Autophagy was assessed via fluorescent microplate assay and confirmed by microscopy in cultured human umbilical vein endothelial cells treated for 24 hours.

## CO[C@H]1C[C@@H]2CC[C@@H](C)[C@@](O)(O2)C(=O)C(=O)N2CCCC[C@H]2C(=O)O[C@H]([C@H](C)C[C@@H]2CC[C@@H](O)[C@H](OC)C2)CC(=O)[C@H](C)/C=C(\C)[C@@H](O)[C@@H](OC)C(=O)[C@H](C)C[C@H](C)/C=C/C=C/C=C/1C [rapamycin]
  Autophagy induction (relative microplate fluorescence): significantly stimulated autophagy
